Data published in the supplement of paper PMC10849652.
The other results are listed elsewhere or left out.

The chains behind the UniProt entries cited, without tags or fusion partners. Where a name states a change or a piece, a line headed by the entry shows the natural chain unless it says otherwise.
UniProt O15269: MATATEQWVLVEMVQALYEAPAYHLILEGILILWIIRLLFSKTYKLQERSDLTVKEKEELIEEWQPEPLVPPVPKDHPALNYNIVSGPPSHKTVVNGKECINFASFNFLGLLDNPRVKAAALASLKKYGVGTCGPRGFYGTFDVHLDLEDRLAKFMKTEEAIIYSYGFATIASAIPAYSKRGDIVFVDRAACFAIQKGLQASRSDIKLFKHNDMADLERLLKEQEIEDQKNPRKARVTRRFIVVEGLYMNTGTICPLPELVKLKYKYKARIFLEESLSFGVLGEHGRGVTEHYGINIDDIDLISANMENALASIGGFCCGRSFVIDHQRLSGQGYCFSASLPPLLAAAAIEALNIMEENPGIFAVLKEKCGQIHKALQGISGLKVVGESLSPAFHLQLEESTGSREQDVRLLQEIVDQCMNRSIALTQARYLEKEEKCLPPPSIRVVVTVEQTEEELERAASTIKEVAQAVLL
UniProt Q8NEF9: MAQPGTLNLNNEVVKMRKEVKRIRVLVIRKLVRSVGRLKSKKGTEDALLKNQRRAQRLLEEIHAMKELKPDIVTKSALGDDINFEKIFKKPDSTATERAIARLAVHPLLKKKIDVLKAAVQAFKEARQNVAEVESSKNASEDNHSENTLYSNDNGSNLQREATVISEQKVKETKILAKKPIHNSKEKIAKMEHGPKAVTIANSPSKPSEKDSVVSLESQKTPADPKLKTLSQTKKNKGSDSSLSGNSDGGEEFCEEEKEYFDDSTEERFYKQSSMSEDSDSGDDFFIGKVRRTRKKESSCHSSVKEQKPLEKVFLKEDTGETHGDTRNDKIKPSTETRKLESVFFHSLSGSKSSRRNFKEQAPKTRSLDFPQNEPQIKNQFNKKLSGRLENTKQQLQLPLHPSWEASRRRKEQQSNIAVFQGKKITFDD
UniProt P42229: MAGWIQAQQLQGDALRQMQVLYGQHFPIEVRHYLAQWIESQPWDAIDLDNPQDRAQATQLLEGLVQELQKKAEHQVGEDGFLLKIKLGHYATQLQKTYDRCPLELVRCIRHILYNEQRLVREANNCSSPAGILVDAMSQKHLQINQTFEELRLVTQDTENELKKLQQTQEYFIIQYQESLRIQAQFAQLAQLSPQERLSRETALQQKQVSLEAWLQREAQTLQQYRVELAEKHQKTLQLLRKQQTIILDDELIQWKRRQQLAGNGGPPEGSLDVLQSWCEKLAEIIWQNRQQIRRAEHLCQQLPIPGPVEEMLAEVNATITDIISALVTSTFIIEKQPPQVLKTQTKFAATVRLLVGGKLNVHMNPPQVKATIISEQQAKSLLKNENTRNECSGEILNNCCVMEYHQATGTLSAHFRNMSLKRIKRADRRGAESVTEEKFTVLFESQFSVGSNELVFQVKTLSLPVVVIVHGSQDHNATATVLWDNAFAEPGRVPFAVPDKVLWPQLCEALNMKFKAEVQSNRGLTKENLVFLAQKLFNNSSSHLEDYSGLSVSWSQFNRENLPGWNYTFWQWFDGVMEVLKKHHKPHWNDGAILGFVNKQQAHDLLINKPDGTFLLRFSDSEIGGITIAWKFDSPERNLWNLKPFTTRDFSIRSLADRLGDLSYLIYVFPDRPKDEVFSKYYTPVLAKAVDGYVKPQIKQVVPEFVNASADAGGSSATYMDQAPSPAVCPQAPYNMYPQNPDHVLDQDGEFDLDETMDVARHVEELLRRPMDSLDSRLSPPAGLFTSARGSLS
UniProt Q08170: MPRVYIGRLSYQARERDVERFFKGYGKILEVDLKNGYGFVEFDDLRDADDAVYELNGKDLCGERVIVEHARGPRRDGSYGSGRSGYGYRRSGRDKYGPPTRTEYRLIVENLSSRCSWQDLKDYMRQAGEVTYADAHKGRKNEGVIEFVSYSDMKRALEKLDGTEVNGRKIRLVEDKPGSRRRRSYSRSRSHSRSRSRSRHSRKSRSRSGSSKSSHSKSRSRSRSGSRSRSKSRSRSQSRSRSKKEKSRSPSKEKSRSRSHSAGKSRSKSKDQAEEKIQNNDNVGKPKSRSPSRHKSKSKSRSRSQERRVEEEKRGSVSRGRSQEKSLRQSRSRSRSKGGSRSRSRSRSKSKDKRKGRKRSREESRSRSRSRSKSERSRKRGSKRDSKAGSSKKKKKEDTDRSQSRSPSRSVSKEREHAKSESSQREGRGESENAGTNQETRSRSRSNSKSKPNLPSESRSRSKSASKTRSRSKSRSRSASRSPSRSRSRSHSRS
UniProt Q16629: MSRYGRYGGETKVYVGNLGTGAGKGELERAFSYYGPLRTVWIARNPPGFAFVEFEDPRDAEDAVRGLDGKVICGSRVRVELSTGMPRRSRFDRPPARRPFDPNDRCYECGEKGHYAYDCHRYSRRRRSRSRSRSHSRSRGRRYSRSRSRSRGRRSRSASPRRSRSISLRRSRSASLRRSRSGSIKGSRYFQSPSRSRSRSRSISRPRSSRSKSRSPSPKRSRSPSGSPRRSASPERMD
UniProt P51571: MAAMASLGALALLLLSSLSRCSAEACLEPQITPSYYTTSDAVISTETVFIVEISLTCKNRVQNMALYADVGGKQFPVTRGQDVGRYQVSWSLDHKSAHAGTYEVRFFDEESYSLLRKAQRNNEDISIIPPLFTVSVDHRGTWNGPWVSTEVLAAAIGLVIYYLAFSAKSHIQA
UniProt Q9UBP0: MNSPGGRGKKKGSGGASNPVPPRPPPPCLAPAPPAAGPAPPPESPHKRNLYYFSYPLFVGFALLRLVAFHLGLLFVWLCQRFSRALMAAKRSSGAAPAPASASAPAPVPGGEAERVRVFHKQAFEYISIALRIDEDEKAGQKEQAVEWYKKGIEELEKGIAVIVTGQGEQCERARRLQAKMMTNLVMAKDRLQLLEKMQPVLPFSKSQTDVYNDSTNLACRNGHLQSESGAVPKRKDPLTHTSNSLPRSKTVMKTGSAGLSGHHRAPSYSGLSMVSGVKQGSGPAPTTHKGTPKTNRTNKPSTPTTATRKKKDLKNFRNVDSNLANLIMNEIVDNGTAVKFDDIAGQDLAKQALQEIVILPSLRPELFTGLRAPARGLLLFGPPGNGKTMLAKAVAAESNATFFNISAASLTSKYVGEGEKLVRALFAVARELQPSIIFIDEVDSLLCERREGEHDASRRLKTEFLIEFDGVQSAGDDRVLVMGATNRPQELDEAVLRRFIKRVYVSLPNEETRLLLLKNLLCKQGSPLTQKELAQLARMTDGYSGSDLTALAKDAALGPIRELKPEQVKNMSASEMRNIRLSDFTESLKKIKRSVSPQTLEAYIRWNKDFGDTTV
UniProt Q9NYA1, whole entry, looked up: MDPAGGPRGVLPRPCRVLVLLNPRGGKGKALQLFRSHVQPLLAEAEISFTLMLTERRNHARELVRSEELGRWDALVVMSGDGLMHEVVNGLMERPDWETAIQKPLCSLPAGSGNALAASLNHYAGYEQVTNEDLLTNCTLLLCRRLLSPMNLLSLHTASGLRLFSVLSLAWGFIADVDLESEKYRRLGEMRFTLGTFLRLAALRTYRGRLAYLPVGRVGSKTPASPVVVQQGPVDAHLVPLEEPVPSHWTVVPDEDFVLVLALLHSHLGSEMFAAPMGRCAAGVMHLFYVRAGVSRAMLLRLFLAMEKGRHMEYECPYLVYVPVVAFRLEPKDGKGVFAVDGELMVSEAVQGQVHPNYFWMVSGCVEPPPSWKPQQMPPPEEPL
UniProt P84103: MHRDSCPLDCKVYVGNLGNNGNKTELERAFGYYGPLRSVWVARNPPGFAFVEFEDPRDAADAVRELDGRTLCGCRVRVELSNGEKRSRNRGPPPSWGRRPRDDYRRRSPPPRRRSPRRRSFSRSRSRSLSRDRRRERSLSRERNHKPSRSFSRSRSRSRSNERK
UniProt Q07955, whole entry, looked up: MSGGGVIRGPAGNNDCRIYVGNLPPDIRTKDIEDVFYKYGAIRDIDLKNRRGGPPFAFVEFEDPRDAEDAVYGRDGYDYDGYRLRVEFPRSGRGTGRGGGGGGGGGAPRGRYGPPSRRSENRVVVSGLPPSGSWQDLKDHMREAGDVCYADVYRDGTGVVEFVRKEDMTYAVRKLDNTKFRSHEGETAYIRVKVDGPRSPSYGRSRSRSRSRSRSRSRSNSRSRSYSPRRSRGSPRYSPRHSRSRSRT
UniProt P42224: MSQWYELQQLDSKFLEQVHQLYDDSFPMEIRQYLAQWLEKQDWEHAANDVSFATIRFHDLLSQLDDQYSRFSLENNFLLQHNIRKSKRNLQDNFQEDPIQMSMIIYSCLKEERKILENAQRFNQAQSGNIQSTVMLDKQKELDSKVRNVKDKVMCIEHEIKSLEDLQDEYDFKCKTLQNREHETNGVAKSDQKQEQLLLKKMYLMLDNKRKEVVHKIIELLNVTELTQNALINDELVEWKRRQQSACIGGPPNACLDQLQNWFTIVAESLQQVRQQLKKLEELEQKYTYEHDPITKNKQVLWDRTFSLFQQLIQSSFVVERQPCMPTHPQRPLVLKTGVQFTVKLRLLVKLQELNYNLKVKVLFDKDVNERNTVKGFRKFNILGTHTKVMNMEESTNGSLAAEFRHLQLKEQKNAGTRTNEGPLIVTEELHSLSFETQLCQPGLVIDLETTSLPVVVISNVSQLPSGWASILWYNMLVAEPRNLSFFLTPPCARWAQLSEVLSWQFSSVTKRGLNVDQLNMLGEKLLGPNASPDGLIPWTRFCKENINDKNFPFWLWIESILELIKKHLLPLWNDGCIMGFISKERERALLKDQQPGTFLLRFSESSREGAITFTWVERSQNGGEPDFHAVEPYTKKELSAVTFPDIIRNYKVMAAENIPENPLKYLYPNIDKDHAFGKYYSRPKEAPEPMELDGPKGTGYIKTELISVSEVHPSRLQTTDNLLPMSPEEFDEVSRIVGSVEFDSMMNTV
UniProt Q658P3: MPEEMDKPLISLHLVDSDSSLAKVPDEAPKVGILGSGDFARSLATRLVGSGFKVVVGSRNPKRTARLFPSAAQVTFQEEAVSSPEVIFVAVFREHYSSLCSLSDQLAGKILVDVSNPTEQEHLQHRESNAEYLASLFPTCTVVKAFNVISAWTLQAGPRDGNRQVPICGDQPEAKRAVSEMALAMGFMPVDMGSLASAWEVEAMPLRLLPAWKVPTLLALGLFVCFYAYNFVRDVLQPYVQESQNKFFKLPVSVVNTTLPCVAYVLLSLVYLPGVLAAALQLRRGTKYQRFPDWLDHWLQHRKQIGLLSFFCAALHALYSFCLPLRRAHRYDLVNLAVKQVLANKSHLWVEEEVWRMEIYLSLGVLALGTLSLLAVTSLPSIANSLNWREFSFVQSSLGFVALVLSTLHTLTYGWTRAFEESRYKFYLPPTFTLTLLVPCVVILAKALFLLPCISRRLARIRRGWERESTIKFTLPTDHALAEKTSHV
UniProt Q69YQ0: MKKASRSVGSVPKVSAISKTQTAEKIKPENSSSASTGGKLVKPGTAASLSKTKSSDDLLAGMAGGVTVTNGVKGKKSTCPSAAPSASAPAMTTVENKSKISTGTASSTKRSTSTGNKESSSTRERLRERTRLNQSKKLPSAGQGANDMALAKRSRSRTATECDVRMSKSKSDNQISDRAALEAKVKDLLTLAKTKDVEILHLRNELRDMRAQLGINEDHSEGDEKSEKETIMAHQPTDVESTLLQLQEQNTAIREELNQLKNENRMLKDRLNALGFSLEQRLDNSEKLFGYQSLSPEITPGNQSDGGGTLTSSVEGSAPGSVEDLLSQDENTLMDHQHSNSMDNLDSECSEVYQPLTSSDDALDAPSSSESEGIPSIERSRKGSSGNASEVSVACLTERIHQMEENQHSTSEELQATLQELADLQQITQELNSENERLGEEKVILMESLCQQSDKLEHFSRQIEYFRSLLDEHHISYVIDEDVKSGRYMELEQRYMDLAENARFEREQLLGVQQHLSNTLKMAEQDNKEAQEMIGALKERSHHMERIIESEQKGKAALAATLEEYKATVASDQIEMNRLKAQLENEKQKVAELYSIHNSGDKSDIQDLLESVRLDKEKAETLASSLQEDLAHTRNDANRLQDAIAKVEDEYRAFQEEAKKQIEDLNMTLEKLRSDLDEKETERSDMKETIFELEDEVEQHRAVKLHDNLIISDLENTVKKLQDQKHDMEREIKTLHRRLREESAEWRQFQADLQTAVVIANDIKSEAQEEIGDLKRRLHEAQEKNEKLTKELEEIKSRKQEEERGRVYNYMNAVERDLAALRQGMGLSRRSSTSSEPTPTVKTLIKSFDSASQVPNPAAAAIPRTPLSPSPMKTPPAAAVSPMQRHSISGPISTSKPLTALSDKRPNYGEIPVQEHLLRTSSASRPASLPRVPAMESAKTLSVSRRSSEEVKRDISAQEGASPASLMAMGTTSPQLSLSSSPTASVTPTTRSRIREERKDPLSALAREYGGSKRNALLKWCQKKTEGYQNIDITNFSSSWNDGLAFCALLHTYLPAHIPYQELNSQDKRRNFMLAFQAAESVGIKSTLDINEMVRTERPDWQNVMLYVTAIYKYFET
UniProt Q9NP77: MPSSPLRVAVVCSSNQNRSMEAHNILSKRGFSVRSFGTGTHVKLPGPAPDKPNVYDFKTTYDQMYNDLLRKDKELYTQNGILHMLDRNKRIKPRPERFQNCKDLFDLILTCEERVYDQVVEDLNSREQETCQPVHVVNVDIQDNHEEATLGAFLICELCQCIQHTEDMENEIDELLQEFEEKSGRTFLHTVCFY

compound: Cc1nc(Nc2n[nH]c3c2CN(C(=O)N[C@H](CN(C)C)c2ccccc2)C3(C)C)c2sccc2n1; experiment: log2 fold change, soluble protein after heating vs DMSO (PISA); higher = thermal stabilisation; K562 cells, 10 uM, 30 min; active = over 0.2 and 3.5 SD of the protein, either way, in both replicates (recomputed)
Summary of the method: (§1)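 Aliquots of K562 cells (2×10^6 cells/mL) treated with 10 μM compound for 30 min were heated for 3 min over 48°C-58°C. After pooling and extraction in PBS with 0.5% NP-40 at 4°C, soluble protein from a 21,000xg, 90 min spin was quantified by TMTpro 16plex LC-MS/MS with channel sums equalised. Thermal stability is expressed against control samples, from duplicates, as a log2 fold change.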

| Target | log2 fold change |
| --- | --- |
| SPTLC1 (UniProt O15269) | inactive: 0.003 |
| SRFBP1 (UniProt Q8NEF9) | inactive: -0.031 |
| STAT5A (UniProt P42229) | active: -0.338 |
| SRSF4 (UniProt Q08170) | active: -0.602 |
| SRP72 (UniProt O76094) | inactive: -0.03 |
| SRSF7 (UniProt Q16629) | active: -0.642 |
| SSR4 (UniProt P51571) | inactive: 0.021 |
| SPTBN4 (UniProt Q9H254) | inactive: 0.027 |
| SPATA5L1 (UniProt Q9BVQ7) | inactive: -0.175 |
| SPG11 (UniProt Q96JI7) | inactive: 0.117 |
| STAT6 (UniProt P42226) | inactive: -0.181 |
| STARD9 (UniProt Q9P2P6) | inactive: 0.157 |
| SREK1 isoform 2 (UniProt Q8WXA9) | active: -0.593 |

compound: Cc1nc(Nc2ncc(C(=O)Nc3c(C)cccc3Cl)s2)cc(N2CCN(CCO)CC2)n1 [dasatinib]; experiment: as above
Summary of the method: as §1

| Target | log2 fold change |
| --- | --- |
| SPAST (UniProt Q9UBP0) | active: -0.246 |
| SPIRE2 (UniProt Q8WWL2) | inactive: 0.141 |
| SPHK1 isoform 2 (UniProt Q9NYA1) | inactive: -0.033 |
| SPPL2A (UniProt Q8TCT8) | inactive: 0.087 |
| SRA1 (UniProt Q9HD15) | inactive: -0.013 |
| STIM1 (UniProt Q13586) | inactive: -0.006 |
| SPTBN1 (UniProt Q01082) | inactive: -0.043 |
| SRSF3 (UniProt P84103) | inactive: 0.173 |
| SPECC1 (UniProt Q5M775) | inactive: -0.067 |
| STAG1 (UniProt Q8WVM7) | inactive: -0.049 |
| SPPL2B (UniProt Q8TCT7) | inactive: -0.066 |
| SRP54 (UniProt P61011) | inactive: -0.093 |
| ST3GAL2 (UniProt Q16842) | inactive: 0.179 |
| SRSF1 (UniProt Q07955) | inactive: 0.177 |
| STAT1 (UniProt P42224) | inactive: 0.101 |
| STAT5B (UniProt P51692) | active: -0.443 |
| ST6GALNAC1 (UniProt Q9NSC7) | inactive: 0.046 |
| STEAP3 isoform 2 (UniProt Q658P3) | inactive: -0.028 |
| SPRYD4 (UniProt Q8WW59) | inactive: 0.003 |
| SRGAP2 (UniProt O75044) | inactive: -0.035 |

| Target | log2 fold change |
| --- | --- |
| SRPK2 isoform 2 (UniProt P78362) | inactive: 0.179 |
| SPART (UniProt Q8N0X7) | inactive: -0.117 |
| STK24 (UniProt Q9Y6E0) | inactive: -0.134 |
| STAT3 (UniProt P40763) | inactive: -0.141 |
| SPECC1L (UniProt Q69YQ0) | inactive: -0.103 |
| SSU72 (UniProt Q9NP77) | inactive: -0.101 |
| SPTLC1 (UniProt O15269) | inactive: -0.065 |
| SRFBP1 (UniProt Q8NEF9) | inactive: 0.095 |
| STAU2 (UniProt Q9NUL3) | inactive: 0.071 |
| STAT5A (UniProt P42229) | inactive: -0.191 |
| SRSF4 (UniProt Q08170) | inactive: 0.109 |
| SRP72 (UniProt O76094) | inactive: -0.186 |
| SRSF7 (UniProt Q16629) | inactive: 0.171 |
| SSR4 (UniProt P51571) | inactive: -0.028 |
| SPTBN4 (UniProt Q9H254) | inactive: 0.017 |
| SPATA5L1 (UniProt Q9BVQ7) | inactive: -0.001 |
| SPG11 (UniProt Q96JI7) | inactive: 0.065 |
| STAT6 (UniProt P42226) | inactive: -0.115 |
| STARD9 (UniProt Q9P2P6) | inactive: 0.091 |
| SREK1 isoform 2 (UniProt Q8WXA9) | inactive: -0.095 |
